Data reported in EP3632934A1 (F. Hoffmann-La Roche AG, dated 2020).
Numbering of substitutions follows the chain as printed. No constants are given. Whether binding was seen depends on the method and setting. Some binding calls cover weakened binding; strength is not graded here.

T1: human OX40 (Sino Biological Inc) (human, UniProt P43489 29-216)
T1 construct: Bought soluble protein used as SPR analyte; also called huOX40
T1 sequence: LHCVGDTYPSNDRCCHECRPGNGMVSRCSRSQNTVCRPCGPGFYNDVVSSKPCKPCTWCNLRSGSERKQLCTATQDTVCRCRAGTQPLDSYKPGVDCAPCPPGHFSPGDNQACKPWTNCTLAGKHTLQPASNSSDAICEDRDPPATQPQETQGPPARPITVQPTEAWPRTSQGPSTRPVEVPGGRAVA

B1: 1D2.gr.1 (antibody, V domains shown)
VH: EVQLVESGPGLVKPSETLSLTCTVSGFSLTDYGVLWIRQPPGKGLEWIGMIWSGGTTDYNAAFISRVTISVDTSKNQFSLKLSSVTAADTAVYYCVREEMDYWGQGTLVTVSS
VL: DIQMTQSPSSLSASVGDRVTITCRASQDISNFLNWYQQKPGKAPKLLIYYTSRLHSGVPSRFSGSGSGTDFTLTISSLQPEDFATYYCQQGNTLPWTFGQGTKVEIK
B2: 1D2.gr.2 (antibody, V domains shown)
VH: B1 VH with V71K, F78V
VL: B1 VL
B3: 1D2.gr.3 (antibody, V domains shown)
VH: B1 VH with I37V, I48L, V67L, V71K, F78V
VL: B1 VL

How the values were obtained:
[1] = molecular target: T1, human OX40 (Sino Biological Inc); test: SPR, Biacore 3000; antibody captured by anti-human Fc, huOX40 injected; ka column
[2] = molecular target: T1, human OX40 (Sino Biological Inc); test: SPR, Biacore
[3] = molecular target: T1, human OX40 (Sino Biological Inc); test: SPR, Biacore 3000; antibody captured by anti-human Fc, huOX40 injected; kd column

| Binder | binding [1] | binding [2] | binding [3] |
| --- | --- | --- | --- |
| B1 | binds | binds | binds |
| B2 | – | binds | – |
| B3 | – | binds | – |
